# Laboratory results reported in the supplement of paper PMC6143611.
# Counter-ions that a name gives are not always drawn. ± gives the uncertainty stated by the source. Some of the results follow. Part of the spread comes from offsets between plates or batches.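 Larvae carried a heat-shock-induced fluorescent stripe in rod outer segments, set at 6 dpf; the shedding distance runs from this stripe to the outer segment tip, measured in confocal stacks, about three fish per compound. The controls got 0.2% DMSO vehicle, and the paper flagged compounds with at least a 20% change against the same-week control and p < 0.001 (Dunnett test on mixed-effects models).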
# Test system: Danio rerio larva rod photoreceptor outer segment
# Assay: rod outer segment shedding distance Ds, difference from same-week DMSO control mean; higher = less outer segment shedding
# Settings: 20 µM; treatment time: 4 days (6-10 dpf)
row,SMILES,rod outer segment shedding distance Ds
1,CC(=O)SCC(Cc1ccccc1)C(=O)NCC(=O)OCc1ccccc1 (stereo not drawn) [Racecadotril],0.37 ± 0.28 um
2,CO/N=C(\C(=O)N[C@@H]1C(=O)N2C(C(=O)O)=C(Cn3ccc(=N)n3CCO)CS[C@H]12)c1csc(N)n1 [Cefoselis Sulfate],-0.54 ± 0.25 um
3,COc1cccc(-c2cc(=O)c3ccccc3o2)c1N,-0.24 ± 0.18 um
4,Cn1c(=O)cc(N2CCC[C@@H](N)C2)n(Cc2ccccc2C#N)c1=O [Alogliptin],-0.18 ± 0.11 um
5,Nc1ccc(S(=O)(=O)Nc2ccccn2)cc1 [Sulfapyridine],0.06 ± 0.18 um
6,"CC(C)(C)C#Cc1cc(N(C(=O)[C@H]2CC[C@H](C)CC2)[C@H]2CC[C@H](O)CC2)c(C(=O)O)s1 [VX-222 (VCH-222, Lomibuvir)]",-0.77 ± 0.17 um
7,COc1cc(Nc2ncc(F)c(Nc3ccc4c(n3)NC(=O)C(C)(C)O4)n2)cc(OC)c1OC [R406 (free base)],0.6 ± 0.17 um
8,Nc1nc(N)nc(-c2cc(Cl)ccc2Cl)n1 [Irsogladine],-1.01 ± 0.29 um
9,COCC[n+]1c2c(n(Cc3cnccn3)c1C)C(=O)c1ccccc1C2=O [YM155 (Sepantronium Bromide)],-0.68 ± 0.23 um
10,CCCCOc1ccc(C(=O)Nc2ccc(F)cc2F)cc1,0.4 ± 0.13 um
11,c1coc(CNc2ncnc3[nH]cnc23)c1 [Kinetin],0.8 ± 0.3 um
12,CNC(=O)CN(CCN(CCN(CC(=O)[O-])CC(=O)NC)CC(=O)[O-])CC(=O)[O-].[Gd+3] [Gadodiamide],-0.22 ± 0.21 um
13,CC[C@H](NC(=O)[C@H](C)NC)C(=O)N1C[C@@H](O)C[C@H]1Cc1c(-c2[nH]c3cc(F)ccc3c2C[C@@H]2C[C@H](O)CN2C(=O)[C@H](CC)NC(=O)[C@H](C)NC)[nH]c2cc(F)ccc12 [Birinapant],0.46 ± 0.12 um

# Shown as tab-separated lines: entries from further up
row	SMILES	rod outer segment shedding distance Ds
3	COc1cccc(-c2cc(=O)c3ccccc3o2)c1N	-0.24 ± 0.18 um
4	Cn1c(=O)cc(N2CCC[C@@H](N)C2)n(Cc2ccccc2C#N)c1=O [Alogliptin]	-0.18 ± 0.11 um
